These are yes or no findings as the source states them, for the method shown. In cells and extracts the contact can be indirect. These calls come from enrichment with a bait or labelling near it, and not all partners need be listed.

By UniProt entry, the sequences of proteins in these tests, tags left out.
UniProt P52294: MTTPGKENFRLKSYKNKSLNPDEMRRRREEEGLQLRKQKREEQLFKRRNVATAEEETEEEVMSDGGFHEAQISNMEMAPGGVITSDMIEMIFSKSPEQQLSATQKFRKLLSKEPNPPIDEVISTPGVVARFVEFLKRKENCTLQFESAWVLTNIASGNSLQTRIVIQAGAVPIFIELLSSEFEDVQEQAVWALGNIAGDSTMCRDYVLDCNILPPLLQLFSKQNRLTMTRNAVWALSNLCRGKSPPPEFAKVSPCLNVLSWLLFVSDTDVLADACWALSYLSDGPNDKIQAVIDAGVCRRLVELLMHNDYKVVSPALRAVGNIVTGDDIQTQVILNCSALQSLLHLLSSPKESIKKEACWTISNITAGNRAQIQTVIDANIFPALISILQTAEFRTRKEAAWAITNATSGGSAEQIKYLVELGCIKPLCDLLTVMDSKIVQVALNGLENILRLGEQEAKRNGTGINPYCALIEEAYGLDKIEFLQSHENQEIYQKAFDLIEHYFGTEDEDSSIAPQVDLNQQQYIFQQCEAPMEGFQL
UniProt Q8TEX9: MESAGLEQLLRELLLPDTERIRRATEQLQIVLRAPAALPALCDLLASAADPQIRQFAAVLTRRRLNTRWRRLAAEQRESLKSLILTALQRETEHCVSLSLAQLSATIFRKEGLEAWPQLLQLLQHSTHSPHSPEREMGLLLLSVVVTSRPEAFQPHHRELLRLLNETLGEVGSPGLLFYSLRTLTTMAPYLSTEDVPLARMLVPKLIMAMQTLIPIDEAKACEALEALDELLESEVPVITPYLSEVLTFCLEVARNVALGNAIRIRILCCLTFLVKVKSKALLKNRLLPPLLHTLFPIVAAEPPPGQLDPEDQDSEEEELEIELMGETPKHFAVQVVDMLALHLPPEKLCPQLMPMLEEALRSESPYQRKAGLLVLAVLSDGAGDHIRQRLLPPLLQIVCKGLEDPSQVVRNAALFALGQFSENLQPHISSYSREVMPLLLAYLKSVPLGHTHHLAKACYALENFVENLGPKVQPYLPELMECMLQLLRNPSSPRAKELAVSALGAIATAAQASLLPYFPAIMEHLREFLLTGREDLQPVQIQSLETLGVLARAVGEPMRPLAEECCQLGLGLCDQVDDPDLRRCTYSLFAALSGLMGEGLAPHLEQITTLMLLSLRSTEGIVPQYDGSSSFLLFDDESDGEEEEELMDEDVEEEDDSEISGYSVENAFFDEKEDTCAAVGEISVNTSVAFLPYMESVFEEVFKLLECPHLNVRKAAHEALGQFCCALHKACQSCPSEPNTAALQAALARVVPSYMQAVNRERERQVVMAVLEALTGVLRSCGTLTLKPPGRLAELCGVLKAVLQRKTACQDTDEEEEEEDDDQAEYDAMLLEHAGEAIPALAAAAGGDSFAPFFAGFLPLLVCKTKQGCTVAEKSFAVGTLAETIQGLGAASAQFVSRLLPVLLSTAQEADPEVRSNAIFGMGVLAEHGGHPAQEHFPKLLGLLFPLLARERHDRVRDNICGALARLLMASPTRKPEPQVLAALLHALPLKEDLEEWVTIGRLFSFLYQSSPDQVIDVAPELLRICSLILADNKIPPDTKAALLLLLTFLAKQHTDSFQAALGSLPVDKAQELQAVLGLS
UniProt Q9P2D1: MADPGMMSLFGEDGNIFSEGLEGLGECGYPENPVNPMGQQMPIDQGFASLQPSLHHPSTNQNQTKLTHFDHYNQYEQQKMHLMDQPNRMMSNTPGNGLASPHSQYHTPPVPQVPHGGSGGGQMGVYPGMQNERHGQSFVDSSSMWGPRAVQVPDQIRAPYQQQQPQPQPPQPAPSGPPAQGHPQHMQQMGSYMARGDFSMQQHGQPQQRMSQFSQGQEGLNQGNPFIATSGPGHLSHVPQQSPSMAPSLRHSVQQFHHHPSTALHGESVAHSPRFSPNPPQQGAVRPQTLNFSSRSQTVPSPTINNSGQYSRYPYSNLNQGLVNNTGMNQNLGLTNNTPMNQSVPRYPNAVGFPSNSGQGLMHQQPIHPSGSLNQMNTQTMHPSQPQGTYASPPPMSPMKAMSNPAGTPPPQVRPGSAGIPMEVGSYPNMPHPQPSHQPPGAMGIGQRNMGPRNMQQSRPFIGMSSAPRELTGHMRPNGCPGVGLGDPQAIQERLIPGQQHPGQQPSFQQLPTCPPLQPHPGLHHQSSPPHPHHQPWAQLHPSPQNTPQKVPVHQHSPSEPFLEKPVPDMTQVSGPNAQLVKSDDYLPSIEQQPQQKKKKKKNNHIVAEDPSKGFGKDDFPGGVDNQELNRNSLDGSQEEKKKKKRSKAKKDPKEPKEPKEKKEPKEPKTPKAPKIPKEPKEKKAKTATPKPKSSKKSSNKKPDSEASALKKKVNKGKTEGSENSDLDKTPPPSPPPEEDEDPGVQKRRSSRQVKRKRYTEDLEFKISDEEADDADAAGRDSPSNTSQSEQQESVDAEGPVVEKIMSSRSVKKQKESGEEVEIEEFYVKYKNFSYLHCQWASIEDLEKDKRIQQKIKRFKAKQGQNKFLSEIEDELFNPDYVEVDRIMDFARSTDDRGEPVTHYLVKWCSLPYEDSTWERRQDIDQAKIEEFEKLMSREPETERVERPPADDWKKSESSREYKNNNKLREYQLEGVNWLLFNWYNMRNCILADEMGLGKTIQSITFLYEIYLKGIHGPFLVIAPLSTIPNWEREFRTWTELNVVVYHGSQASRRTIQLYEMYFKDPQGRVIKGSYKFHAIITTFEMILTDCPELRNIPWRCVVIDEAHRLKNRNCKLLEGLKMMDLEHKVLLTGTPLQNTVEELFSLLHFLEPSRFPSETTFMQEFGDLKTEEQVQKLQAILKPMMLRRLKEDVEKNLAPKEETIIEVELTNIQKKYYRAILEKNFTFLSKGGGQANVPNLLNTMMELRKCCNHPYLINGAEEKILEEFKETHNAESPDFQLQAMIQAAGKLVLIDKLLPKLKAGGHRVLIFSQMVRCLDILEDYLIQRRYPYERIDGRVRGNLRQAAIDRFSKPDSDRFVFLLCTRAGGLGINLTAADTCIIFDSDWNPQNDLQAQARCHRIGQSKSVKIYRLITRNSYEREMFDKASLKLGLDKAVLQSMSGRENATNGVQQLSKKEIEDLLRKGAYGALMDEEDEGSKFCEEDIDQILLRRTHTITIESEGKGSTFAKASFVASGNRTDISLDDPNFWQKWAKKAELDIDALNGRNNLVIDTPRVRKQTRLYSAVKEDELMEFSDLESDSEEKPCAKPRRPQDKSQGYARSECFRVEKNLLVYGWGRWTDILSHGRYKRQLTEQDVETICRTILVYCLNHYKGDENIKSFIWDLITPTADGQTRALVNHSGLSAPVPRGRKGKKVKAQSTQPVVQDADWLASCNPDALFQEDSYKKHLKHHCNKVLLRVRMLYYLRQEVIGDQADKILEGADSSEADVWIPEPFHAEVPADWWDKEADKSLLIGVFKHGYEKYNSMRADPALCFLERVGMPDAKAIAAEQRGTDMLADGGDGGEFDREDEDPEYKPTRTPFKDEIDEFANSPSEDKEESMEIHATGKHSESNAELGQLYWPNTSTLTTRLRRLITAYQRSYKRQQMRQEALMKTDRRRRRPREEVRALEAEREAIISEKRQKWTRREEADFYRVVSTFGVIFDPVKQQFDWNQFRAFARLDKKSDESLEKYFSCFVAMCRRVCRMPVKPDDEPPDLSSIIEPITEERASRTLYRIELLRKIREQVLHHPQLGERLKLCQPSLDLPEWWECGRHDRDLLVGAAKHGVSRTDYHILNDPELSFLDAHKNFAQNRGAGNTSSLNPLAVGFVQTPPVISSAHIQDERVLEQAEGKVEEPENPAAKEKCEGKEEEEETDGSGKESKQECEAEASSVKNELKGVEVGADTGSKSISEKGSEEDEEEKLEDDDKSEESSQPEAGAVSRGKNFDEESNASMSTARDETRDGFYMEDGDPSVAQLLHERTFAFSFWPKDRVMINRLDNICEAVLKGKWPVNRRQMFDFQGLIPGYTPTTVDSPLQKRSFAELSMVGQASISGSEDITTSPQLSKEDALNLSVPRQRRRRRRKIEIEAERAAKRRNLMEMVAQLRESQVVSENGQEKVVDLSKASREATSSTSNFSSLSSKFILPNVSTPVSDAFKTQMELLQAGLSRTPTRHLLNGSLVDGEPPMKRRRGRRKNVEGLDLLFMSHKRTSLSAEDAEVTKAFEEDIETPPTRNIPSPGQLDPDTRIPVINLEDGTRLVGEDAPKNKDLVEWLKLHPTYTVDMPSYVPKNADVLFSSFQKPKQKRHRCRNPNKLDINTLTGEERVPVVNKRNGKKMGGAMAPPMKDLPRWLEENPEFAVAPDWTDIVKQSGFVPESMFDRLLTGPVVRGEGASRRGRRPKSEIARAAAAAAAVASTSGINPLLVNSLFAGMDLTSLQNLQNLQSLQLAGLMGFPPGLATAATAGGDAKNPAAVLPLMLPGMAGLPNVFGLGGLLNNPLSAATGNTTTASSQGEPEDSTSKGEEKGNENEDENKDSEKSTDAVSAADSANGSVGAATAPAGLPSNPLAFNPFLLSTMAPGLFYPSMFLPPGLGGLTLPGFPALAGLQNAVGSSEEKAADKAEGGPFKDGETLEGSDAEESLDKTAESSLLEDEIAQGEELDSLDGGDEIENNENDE
UniProt Q96HW7: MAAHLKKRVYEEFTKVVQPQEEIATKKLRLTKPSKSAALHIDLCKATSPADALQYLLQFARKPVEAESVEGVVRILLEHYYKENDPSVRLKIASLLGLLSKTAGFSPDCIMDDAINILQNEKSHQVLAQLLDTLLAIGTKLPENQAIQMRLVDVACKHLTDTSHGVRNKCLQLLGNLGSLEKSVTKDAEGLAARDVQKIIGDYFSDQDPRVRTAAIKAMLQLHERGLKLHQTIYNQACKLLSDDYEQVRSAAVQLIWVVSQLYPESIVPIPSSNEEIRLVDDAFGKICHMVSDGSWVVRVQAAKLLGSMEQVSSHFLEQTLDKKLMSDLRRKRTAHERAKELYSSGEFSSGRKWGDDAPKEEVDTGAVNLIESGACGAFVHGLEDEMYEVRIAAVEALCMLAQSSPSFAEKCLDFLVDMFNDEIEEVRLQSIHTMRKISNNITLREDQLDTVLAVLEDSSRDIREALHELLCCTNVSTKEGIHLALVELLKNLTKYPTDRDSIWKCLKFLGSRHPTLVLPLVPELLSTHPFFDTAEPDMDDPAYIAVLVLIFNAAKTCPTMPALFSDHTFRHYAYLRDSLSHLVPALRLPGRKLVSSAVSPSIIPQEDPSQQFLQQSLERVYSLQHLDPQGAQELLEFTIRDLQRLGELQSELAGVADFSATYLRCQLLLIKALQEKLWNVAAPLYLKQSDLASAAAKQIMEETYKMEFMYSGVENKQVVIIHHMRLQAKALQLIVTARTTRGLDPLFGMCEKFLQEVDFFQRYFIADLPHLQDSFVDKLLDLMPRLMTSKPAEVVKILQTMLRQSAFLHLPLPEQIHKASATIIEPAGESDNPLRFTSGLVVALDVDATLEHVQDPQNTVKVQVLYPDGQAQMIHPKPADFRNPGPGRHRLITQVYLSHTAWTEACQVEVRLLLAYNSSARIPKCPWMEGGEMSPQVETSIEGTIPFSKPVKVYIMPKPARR
UniProt Q5TA45: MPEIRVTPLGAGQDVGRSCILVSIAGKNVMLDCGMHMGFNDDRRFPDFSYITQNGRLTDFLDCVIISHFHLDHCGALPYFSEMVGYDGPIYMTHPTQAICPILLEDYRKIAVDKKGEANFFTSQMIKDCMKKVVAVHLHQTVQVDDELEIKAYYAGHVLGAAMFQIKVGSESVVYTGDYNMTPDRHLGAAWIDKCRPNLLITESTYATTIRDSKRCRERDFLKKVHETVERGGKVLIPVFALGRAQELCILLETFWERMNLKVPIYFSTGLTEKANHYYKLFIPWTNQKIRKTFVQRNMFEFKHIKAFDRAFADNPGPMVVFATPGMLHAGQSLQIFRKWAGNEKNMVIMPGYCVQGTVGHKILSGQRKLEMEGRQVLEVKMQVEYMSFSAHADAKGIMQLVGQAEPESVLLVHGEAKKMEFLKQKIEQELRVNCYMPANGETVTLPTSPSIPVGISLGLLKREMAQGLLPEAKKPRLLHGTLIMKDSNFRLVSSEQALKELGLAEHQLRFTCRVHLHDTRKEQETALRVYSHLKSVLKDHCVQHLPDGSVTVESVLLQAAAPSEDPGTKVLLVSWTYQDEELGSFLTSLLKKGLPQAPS
UniProt Q8N9N2: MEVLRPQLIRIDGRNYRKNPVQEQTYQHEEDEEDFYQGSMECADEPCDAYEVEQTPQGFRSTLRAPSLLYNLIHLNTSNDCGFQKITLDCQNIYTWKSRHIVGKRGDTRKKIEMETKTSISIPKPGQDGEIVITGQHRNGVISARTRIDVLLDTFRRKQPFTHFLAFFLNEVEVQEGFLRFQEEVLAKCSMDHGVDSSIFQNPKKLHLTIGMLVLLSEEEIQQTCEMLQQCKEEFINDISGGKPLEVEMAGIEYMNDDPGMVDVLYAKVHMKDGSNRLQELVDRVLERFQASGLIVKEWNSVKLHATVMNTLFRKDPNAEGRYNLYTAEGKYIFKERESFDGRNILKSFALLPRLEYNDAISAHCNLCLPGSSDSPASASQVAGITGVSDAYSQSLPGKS

The results in this text go back to publication PMC5740495.

Holding throughout (assay): proximity labelling; BioID, large-scale, direct identification of biotinylated peptides: same NTR-BirA* lines; biotinylated peptides eluted from streptavidin beads with 80% ACN, 20% TFA after the on-bead digest, MS
One experiment addresses IMA5 (human) (UniProt P52294).
A further experiment concerns the target T1, TNPO2 (human) (UniProt O14787).
T1 sequence: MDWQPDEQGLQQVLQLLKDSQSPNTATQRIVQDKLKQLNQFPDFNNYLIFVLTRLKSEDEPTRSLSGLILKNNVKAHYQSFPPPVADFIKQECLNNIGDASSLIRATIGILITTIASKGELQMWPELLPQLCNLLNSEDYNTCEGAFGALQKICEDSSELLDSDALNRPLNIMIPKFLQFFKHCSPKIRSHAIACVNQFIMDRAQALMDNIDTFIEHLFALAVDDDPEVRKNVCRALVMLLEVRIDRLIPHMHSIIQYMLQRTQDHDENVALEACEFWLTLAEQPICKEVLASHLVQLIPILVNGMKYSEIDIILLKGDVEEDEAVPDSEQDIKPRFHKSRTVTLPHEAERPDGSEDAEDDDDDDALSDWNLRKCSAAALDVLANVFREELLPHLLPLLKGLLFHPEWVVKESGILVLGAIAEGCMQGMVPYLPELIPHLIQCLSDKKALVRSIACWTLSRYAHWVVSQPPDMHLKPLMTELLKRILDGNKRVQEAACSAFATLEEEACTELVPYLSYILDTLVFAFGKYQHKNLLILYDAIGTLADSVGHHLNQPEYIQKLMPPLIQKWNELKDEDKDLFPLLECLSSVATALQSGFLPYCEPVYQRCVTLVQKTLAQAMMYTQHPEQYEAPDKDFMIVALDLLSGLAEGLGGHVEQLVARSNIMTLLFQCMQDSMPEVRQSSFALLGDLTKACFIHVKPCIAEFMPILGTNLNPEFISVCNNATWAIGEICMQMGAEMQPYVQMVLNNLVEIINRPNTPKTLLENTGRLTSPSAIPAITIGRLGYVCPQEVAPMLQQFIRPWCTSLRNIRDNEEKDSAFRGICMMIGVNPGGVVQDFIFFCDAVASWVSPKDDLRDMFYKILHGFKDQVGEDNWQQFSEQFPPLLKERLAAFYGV

The target of a further experiment is IPO4 (human) (UniProt Q8TEX9).

With CHD3 (from UniProt Q12873 1-2000), the binding result with IMA5 (human) is reported as “binds”.

For the molecule EXOSC9 (from UniProt Q06265 1-439), in the experiment with IMA5 (human), the binding result is “binds”.

For the molecule CHD7 (from UniProt Q9P2D1 1-2997), in the experiment with IMA5 (human), the binding entry is on record as “binds”.

As to SMC4 (from UniProt Q9NTJ3 1-1288), the binding entry with IMA5 (human) is “binds”.

As to MSH6 (from UniProt P52701 1-1360), the binding result in the experiment with IMA5 (human) was “binds”.

Take CHDL1 (from UniProt Q86WJ1 1-897): the binding result in the experiment with IMA5 (human) is “binds”.

Take INTS4 (from UniProt Q96HW7 1-963): in the experiment with IMA5 (human), the binding entry is “binds”.

Regarding FUBP1 (from UniProt Q96AE4 1-644), the binding result with TNPO2 (human) is “binds”.

CHD8 (from UniProt Q9HCK8 1-2581): the binding result with IMA5 (human) is listed as “binds”.

On to INTS11 (from UniProt Q5TA45 1-600), for which the binding result with IMA5 (human) is “binds”.

Take RPAC2 (from UniProt P0DPB6 1-133): the binding entry with IMA5 (human) is reported as “binds”.

On to TACC3 (from UniProt Q9Y6A5 1-838), for which, in the experiment with IPO4 (human), the binding result is reported as “binds”.

In the case of FUBP3 (from UniProt Q96I24 1-572), the binding entry in the experiment with TNPO2 (human) is “binds”.

Regarding RPC3 (from UniProt Q9BUI4 1-534), the binding result with IMA5 (human) was “binds”.

With INTS10 (from UniProt Q9NVR2 1-710), in the experiment with IMA5 (human), the binding entry is given as “binds”.

For ASCC1 (from UniProt Q8N9N2 1-400), the binding entry in the experiment with IPO4 (human) is on record as “binds”.

Regarding TACC1 (from UniProt O75410 1-805), in the experiment with IPO4 (human), the binding result is “binds”.

B1: CRTC1 (protein, UniProt Q6UUV9 1-634)
chain: MATSNNPRKFSEKIALHNQKQAEETAAFEEVMKDLSLTRAARLQLQKSQYLQLGPSRGQYYGGSLPNVNQIGSGTMDLPFQTPFQSSGLDTSRTTRHHGLVDRVYRERGRLGSPHRRPLSVDKHGRQADSCPYGTMYLSPPADTSWRRTNSDSALHQSTMTPTQPESFSSGSQDVHQKRVLLLTVPGMEETTSEADKNLSKQAWDTKKTGSRPKSCEVPGINIFPSADQENTTALIPATHNTGGSLPDLTNIHFPSPLPTPLDPEEPTFPALSSSSSTGNLAANLTHLGIGGAGQGMSTPGSSPQHRPAGVSPLSLSTEARRQQASPTLSPLSPITQAVAMDALSLEQQLPYAFFTQAGSQQPPPQPQPPPPPPPASQQPPPPPPPQAPVRLPPGGPLLPSASLTRGPQPPPLAVTVPSSLPQSPPENPGQPSMGIDIASAPALQQYRTSAGSPANQSPTSPVSNQGFSPGSSPQHTSTLGSVFGDAYYEQQMAARQANALSHQLEQFNMMENAISSSSLYSPGSTLNYSQAAMMGLTGSHGSLPDSQQLGYASHSGIPNIILTVTGESPPSLSKELTSSLAGVGDVSFDSDSQFPLDELKIDPLTLDGLHMLNDPDMVLADPATEDTFRMDRL
Consider B1, for which, in the experiment with TNPO2 (human), the binding result is “binds”.

B2: CRTC2 (protein, UniProt Q53ET0 1-693)
chain: MATSGANGPGSATASASNPRKFSEKIALQKQRQAEETAAFEEVMMDIGSTRLQAQKLRLAYTRSSHYGGSLPNVNQIGSGLAEFQSPLHSPLDSSRSTRHHGLVERVQRDPRRMVSPLRRYTRHIDSSPYSPAYLSPPPESSWRRTMAWGNFPAEKGQLFRLPSALNRTSSDSALHTSVMNPSPQDTYPGPTPPSILPSRRGGILDGEMDPKVPAIEENLLDDKHLLKPWDAKKLSSSSSRPRSCEVPGINIFPSPDQPANVPVLPPAMNTGGSLPDLTNLHFPPPLPTPLDPEETAYPSLSGGNSTSNLTHTMTHLGISRGMGLGPGYDAPGLHSPLSHPSLQSSLSNPNLQASLSSPQPQLQGSHSHPSLPASSLARHVLPTTSLGHPSLSAPALSSSSSSSSTSSPVLGAPSYPASTPGASPHHRRVPLSPLSLLAGPADARRSQQQLPKQFSPTMSPTLSSITQGVPLDTSKLSTDQRLPPYPYSSPSLVLPTQPHTPKSLQQPGLPSQSCSVQSSGGQPPGRQSHYGTPYPPGPSGHGQQSYHRPMSDFNLGNLEQFSMESPSASLVLDPPGFSEGPGFLGGEGPMGGPQDPHTFNHQNLTHCSRHGSGPNIILTGDSSPGFSKEIAAALAGVPGFEVSAAGLELGLGLEDELRMEPLGLEGLNMLSDPCALLPDPAVEESFRSDRLQ
Turning to B2, the binding entry with TNPO2 (human) is given as “binds”.

B3: TRIP4 (protein, UniProt Q15650 1-581)
chain: MAVAGAVSGEPLVHWCTQQLRKTFGLDVSEEIIQYVLSIESAEEIREYVTDLLQGNEGKKGQFIEELITKWQKNDQELISDPLQQCFKKDEILDGQKSGDHLKRGRKKGRNRQEVPAFTEPDTTAEVKTPFDLAKAQENSNSVKKKTKFVNLYTREGQDRLAVLLPGRHPCDCLGQKHKLINNCLICGRIVCEQEGSGPCLFCGTLVCTHEEQDILQRDSNKSQKLLKKLMSGVENSGKVDISTKDLLPHQELRIKSGLEKAIKHKDKLLEFDRTSIRRTQVIDDESDYFASDSNQWLSKLERETLQKREEELRELRHASRLSKKVTIDFAGRKILEEENSLAEYHSRLDETIQAIANGTLNQPLTKLDRSSEEPLGVLVNPNMYQSPPQWVDHTGAASQKKAFRSSGFGLEFNSFQHQLRIQDQEFQEGFDGGWCLSVHQPWASLLVRGIKRVEGRSWYTPHRGRLWIAATAKKPSPQEVSELQATYRLLRGKDVEFPNDYPSGCLLGCVDLIDCLSQKQFKEQFPDISQESDSPFVFICKNPQEMVVKFPIKGNPKIWKLDSKIHQGAKKGLMKQNKAV
For the molecule B3, in the experiment with IPO4 (human), the binding result is given as “binds”.

B4: RRP44 (protein, UniProt Q9Y2L1 1-958)
chain: MLKSKTFLKKTRAGGVMKIVREHYLRDDIGCGAPGCAACGGAHEGPALEPQPQDPASSVCPQPHYLLPDTNVLLHQIDVLEDPAIRNVIVLQTVLQEVRNRSAPVYKRIRDVTNNQEKHFYTFTNEHHRETYVEQEQGENANDRNDRAIRVAAKWYNEHLKKMSADNQLQVIFITNDRRNKEKAIEEGIPAFTCEEYVKSLTANPELIDRLACLSEEGNEIESGKIIFSEHLPLSKLQQGIKSGTYLQGTFRASRENYLEATVWIHGDNEENKEIILQGLKHLNRAVHEDIVAVELLPKSQWVAPSSVVLHDEGQNEEDVEKEEETERMLKTAVSEKMLKPTGRVVGIIKRNWRPYCGMLSKSDIKESRRHLFTPADKRIPRIRIETRQASTLEGRRIIVAIDGWPRNSRYPNGHFVRNLGDVGEKETETEVLLLEHDVPHQPFSQAVLSFLPKMPWSITEKDMKNREDLRHLCICSVDPPGCTDIDDALHCRELENGNLEVGVHIADVSHFIRPGNALDQESARRGTTVYLCEKRIDMVPELLSSNLCSLKCDVDRLAFSCIWEMNHNAEILKTKFTKSVINSKASLTYAEAQLRIDSANMNDDITTSLRGLNKLAKILKKRRIEKGALTLSSPEVRFHMDSETHDPIDLQTKELRETNSMVEEFMLLANISVAKKIHEEFSEHALLRKHPAPPPSNYEILVKAARSRNLEIKTDTAKSLAESLDQAESPTFPYLNTLLRILATRCMMQAVYFCSGMDNDFHHYGLASPIYTHFTSPIRRYADVIVHRLLAVAIGADCTYPELTDKHKLADICKNLNFRHKMAQYAQRASVAFHTQLFFKSKGIVSEEAYILFVRKNAIVVLIPKYGLEGTVFFEEKDKPNPQLIYDDEIPSLKIEDTVFHVFDKVKVKIMLDSSNLQHQKIRMSLVEPQIPGISIPTDTSNMDLNGPKKKKMKLGK
On to B4, for which, in the experiment with IMA5 (human), the binding result was “binds”.

B5: HAUS2 (protein, UniProt Q9NVX0 1-235)
chain: MAAANPWDPASAPNGAGLVLGHFIASGMVNQEMLNMSKKTVSCFVNFTRLQQITNIQAEIYQKNLEIELLKLEKDTADVVHPFFLAQKCHTLQSMNNHLEAVLKEKRSLRQRLLKPMCQENLPIEAVYHRYMVHLLELAVTFIERLETHLETIRNIPHLAANLKKMNQALAKMDILVTETEELAENILKWRKQQNEVSSCIPKILAEESYLYKHDIIMPPLPFTSKVHVQTINAK
Consider B5, for which the binding entry with IPO4 (human) was “binds”.

B6: ELL (protein, UniProt P55199 1-621)
chain: MAALKEDRSYGLSCGRVSDGSKVSVFHVKLTDSALRAFESYRARQDSVSLRPSIRFQGSQGHISIPQPDCPAEARTFSFYLSNIGRDNPQGSFDCIQQYVSSHGEVHLDCLGSIQDKITVCATDDSYQKARQSMAQAEEETRSRSAIVIKAGGRYLGKKVQFRKPAPGATDAVPSRKRATPINLASAIRKSGASAVSGGSGVSQRPFRDRVLHLLALRPYRKAELLLRLQKDGLTQADKDALDGLLQQVANMSAKDGTCTLQDCMYKDVQKDWPGYSEGDQQLLKRVLVRKLCQPQSTGSLLGDPAASSPPGERGRSASPPQKRLQPPDFIDPLANKKPRISHFTQRAQPAVNGKLGVPNGREALLPTPGPPASTDTLSSSTHLPPRLEPPRAHDPLADVSNDLGHSGRDCEHGEAAAPAPTVRLGLPLLTDCAQPSRPHGSPSRSKPKKKSKKHKDKERAAEDKPRAQLPDCAPATHATPGAPADTPGLNGTCSVSSVPTSTSETPDYLLKYAAISSSEQRQSYKNDFNAEYSEYRDLHARIERITRRFTQLDAQLRQLSQGSEEYETTRGQILQEYRKIKKTNTNYSQEKHRCEYLHSKLAHIKRLIAEYDQRQLQAWP
With B6, the binding entry with IMA5 (human) was “binds”.
